This is an account of results in patent publication US20180086821A1 (MAYO FOUNDATION FOR MEDICAL EDUCATION AND RESEARCH, published 2018).

Assay [1] deals with myelin basic protein (MBP). Description: ELISA, MBP coated on plate. In general terms: An ELISA detects its analyte on a solid surface through an enzyme-linked reagent.
Another assay addresses albumin. In words: solid-phase ELISA.
For the next assay, the target named is myosin. In words: solid-phase ELISA.
The next assay has as its target thyroglobulin. Description: solid-phase ELISA.
Another assay deals with tubulin. Description: solid-phase ELISA.
Assay [2] addresses myelin basic protein (MBP). Description: solid-phase ELISA.
The target in the next assay is vimentin. In words: solid-phase ELISA.
The target in the next assay is transferrin. In words: solid-phase ELISA.
The next assay deals with hemoglobin. In words: solid-phase ELISA.

No constants are given. Whether binding was seen depends on the method and setting. For some of these results: A result given as binding can be weak or reduced; the word gives no strength.

B1: monoclonal antibody SCH94.03 (antibody, V domains shown)
VH: QVQLQQPGTELVKPGASVKLSCKASGYTFTSYWMHWVKQRPGQGLEWIGNINPSNGGTNYNEKFKSKATLTVDKSSSTAYMQLSSLTSEDSAVYYCARRAPYYGSRNFDYWGQGTTLTVSS
VL: DIQMTQTTSSLSASLGDRVTISCRASQDISNYLNWYQQKPDGTVKLLIYYTSRLHSGVPSRFSGSGSGTDYSLTISNLEQEDIATYFCQQGNTLPWTFGGGTKLEIKR
B1: the binding entry is “no binding” in [1]; “no binding” with albumin; “no binding” with myosin; “binds” in the assay with thyroglobulin; “binds” in the assay with tubulin; “no binding” in assay [2]. The binding entry with vimentin is reported as “binds”; in the assay with transferrin it was “no binding”.

B2: mAb O1 (antibody, V domains shown)
VH: QVQLQQSGPELVKPGALVKISCKASGYTFTSYDINWVKQRPGQGLEWIGWIYPGDGSTKYNEKFKGKATLTADKSSSTAYMQLSSLTSENSAVYFCARGARFYWYFDVWGAGTTVTVSS
VL: DVQITQSPSYLAASPGETITINCRASKSISKYLAWYQEKPGKTNKLLIYSGSTLQSGIPSRFSGSGSGTDFTLTISSLEPEDFAMYYCQQHNEYPYTFGGGTKLEIKR
notes: Mouse IgM kappa; Entries may include the leader peptide; The hybridoma also makes the MOPC21 kappa chain; also called 01
Turning to B2, the binding result (with albumin; in the assay with myosin; in the assay with thyroglobulin; with tubulin; with hemoglobin; in assay [2]) was “no binding” in each case. Besides, the binding result in the assay with vimentin and with transferrin was “no binding” throughout.
